Among the data in PMC6967779 are binding values, retold here.

Amino acid sequences for entries named in this document (tags omitted). Residues count along the entry.
UniProt P25705, residues 44-553: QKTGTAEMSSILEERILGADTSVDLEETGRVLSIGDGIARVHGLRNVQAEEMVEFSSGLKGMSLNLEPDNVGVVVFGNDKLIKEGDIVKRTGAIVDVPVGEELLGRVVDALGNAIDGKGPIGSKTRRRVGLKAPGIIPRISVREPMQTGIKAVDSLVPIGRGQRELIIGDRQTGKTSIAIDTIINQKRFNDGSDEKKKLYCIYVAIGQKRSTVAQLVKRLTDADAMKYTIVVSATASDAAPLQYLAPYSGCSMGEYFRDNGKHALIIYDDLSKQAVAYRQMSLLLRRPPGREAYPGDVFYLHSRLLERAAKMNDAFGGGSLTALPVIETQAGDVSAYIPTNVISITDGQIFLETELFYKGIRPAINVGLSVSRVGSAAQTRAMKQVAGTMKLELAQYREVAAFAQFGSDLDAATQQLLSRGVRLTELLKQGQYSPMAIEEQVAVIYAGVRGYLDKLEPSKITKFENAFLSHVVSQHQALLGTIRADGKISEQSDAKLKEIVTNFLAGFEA

These are yes or no findings as the source states them, for the method shown. Binding seen in cells or lysates may run through a third protein. Some results given as binding are weak or reduced against the parent protein; the word gives no strength. Where a sequence is shown, tags or fusion partners need not be part of it.

Experiment [1] has as its target T1, WT rGRA8 (recombinant His-tagged Toxoplasma gondii GRA8, 1-269) (Toxoplasma gondii).
T1 sequence: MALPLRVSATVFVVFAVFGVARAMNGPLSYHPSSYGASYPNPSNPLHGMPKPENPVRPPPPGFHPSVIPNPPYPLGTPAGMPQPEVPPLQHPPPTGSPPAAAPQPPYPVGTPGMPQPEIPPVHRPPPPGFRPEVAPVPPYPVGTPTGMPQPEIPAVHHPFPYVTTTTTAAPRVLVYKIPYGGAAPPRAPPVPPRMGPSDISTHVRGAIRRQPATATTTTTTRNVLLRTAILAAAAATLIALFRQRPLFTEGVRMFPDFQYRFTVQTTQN
The experiment in a line: condition: only in HCT116 cells transduced with lentivirus-shRNA-SIRT3; co-IP; as a1, but HCT116 cells transduced with lentivirus-shRNA-SIRT3 (MOI = 100) for 2 days before rGRA8; only the target purified.

Experiment [2] has the same target. The experiment in a line: co-IP; HCT116 cells (lentivirus-shRNA-NS) incubated with WT rGRA8 for the indicated times; lysed in NP-40 buffer; IP with anti-His, IB with anti-ATP5A1, anti-ATP5C1, anti-SIRT3; only the target purified.
The target is the same in experiment [3]. The experiment in a line: condition: only in HCT116 cells transduced with lentivirus-shRNA-PKCα; co-IP; as a1, but HCT116 cells transduced with lentivirus-shRNA-PKCalpha (MOI = 100) for 2 days before rGRA8; only the target purified.
The target of experiment [4] is T2, GST-GRA8 WT (1-269) (Toxoplasma gondii).
T2 sequence: T1 sequence
The experiment in a line: pull-down; 293T cells transfected with GST-GRA8 together with V5-ATP5A1 or Flag-SIRT3; NP-40 lysate; glutathione Sepharose beads, 4 h at 4°C; IB with anti-V5 or anti-Flag.

Consider “ATP synthase F1 subunit alpha (ATP5A1), endogenous (from UniProt P25705 44-553)”, for which the results for the binding entry in experiment [1], in experiment [2] and in experiment [3] were “no binding”, “binds” and “no binding”, respectively.

Turning to V5-ATP5A1 (from UniProt P25705 44-553), the binding entry in experiment [4] is given as “binds”.
